The other results are listed elsewhere or left out.
Compound: CC1Cc2ccccc2N1C(=O)C1CCCN(C1)C(=O)CCl (mixture of isomers) [TRIM25 ligand 11 (diastereomer mixture)]
Assay: probe-labelled cysteine peptide fold change vs DMSO (competition) (log2 fold change); higher = less target engagement (more negative = stronger competition)
Settings: THP-1, incubation time: 4 h
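Note: competitive chemoproteomic profiling in live THP-1 cells with an iodoacetamide desthiobiotin (IA-DTB) probe, comparing probe-labelled peptide intensities in compound-treated cells against DMSO-treated controls.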

By UniProt entry, the sequences of proteins in these tests, tags left out. Where a name states a change or a piece, a line headed by the entry shows the natural chain unless it says otherwise.
UniProt Q9Y221: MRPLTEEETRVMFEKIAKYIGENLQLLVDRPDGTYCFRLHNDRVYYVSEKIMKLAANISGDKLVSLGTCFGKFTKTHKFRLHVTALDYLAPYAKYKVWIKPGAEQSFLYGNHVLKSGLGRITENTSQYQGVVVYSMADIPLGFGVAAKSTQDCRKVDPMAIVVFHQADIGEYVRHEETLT
UniProt Q8NI08: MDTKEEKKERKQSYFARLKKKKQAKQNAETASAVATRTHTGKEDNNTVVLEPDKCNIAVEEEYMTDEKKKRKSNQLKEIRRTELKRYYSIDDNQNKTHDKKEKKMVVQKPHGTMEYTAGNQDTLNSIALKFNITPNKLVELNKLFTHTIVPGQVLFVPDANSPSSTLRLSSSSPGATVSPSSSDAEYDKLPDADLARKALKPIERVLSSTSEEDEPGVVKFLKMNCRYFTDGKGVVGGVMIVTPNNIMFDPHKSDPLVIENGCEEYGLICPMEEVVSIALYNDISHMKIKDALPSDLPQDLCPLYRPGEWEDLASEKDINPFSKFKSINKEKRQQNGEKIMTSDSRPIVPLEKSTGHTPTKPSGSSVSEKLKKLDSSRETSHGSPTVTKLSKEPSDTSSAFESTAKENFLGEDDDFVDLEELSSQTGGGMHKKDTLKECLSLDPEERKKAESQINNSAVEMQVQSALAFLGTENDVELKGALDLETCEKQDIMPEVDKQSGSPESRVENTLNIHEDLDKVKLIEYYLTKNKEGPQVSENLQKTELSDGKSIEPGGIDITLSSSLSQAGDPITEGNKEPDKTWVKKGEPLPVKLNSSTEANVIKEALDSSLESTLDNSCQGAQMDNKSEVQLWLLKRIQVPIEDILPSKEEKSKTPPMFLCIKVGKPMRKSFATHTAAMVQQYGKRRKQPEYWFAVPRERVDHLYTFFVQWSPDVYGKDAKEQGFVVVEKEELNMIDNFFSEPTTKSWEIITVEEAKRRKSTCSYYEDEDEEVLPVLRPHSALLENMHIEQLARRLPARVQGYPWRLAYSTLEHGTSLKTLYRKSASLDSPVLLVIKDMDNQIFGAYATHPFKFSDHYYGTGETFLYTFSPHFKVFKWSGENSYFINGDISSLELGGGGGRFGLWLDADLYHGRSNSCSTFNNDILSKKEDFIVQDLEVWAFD
UniProt Q9HCD5: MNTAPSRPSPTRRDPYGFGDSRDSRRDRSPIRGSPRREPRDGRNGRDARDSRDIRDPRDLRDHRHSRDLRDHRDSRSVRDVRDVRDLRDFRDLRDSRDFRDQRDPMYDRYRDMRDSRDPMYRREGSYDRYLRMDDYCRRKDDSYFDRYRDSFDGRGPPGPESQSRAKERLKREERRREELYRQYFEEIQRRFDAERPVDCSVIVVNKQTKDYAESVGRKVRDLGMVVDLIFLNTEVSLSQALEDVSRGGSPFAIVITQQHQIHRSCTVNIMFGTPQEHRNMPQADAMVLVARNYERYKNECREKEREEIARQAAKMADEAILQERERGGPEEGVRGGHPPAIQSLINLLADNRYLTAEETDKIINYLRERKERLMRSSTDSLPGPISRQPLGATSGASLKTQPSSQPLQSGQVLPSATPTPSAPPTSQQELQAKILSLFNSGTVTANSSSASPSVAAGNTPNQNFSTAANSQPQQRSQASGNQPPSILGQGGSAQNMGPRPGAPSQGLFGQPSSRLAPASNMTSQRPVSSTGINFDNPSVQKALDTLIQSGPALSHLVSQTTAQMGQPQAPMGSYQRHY
UniProt P55160: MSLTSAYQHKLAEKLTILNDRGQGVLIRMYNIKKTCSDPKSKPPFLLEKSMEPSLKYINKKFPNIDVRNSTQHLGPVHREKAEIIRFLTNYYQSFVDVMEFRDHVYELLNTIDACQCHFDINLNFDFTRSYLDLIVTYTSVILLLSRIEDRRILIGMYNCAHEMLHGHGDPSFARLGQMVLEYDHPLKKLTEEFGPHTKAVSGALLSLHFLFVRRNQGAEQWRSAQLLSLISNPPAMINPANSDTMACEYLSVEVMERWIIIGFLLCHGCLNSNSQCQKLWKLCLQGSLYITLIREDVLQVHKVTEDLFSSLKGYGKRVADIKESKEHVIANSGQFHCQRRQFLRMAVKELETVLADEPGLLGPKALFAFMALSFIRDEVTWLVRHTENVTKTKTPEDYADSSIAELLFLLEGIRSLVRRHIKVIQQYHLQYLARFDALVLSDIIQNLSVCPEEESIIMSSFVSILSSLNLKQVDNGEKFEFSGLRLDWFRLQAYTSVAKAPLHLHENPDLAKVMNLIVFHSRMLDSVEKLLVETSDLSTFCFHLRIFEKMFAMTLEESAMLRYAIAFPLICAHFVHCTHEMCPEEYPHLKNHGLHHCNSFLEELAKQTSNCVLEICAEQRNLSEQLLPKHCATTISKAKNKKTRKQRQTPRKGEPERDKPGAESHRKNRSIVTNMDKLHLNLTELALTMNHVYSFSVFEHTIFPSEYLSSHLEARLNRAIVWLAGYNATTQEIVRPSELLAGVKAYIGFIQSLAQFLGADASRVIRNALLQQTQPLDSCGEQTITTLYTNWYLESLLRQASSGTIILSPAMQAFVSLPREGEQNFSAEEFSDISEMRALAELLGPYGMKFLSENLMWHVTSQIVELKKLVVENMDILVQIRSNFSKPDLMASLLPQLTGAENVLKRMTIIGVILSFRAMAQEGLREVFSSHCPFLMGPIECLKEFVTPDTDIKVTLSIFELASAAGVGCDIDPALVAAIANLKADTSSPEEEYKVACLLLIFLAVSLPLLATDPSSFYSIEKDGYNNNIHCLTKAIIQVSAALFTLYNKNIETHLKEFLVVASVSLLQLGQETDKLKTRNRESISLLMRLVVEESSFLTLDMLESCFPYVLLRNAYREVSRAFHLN
UniProt Q86X76: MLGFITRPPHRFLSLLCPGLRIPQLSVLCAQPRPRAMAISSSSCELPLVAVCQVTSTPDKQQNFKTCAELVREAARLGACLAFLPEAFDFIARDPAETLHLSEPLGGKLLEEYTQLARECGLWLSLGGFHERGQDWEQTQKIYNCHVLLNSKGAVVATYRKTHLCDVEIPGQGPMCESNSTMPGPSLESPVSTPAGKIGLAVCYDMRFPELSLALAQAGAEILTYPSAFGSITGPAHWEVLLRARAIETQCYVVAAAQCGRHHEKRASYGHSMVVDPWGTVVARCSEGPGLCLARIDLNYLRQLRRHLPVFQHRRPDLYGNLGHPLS
UniProt Q86Y39, whole entry, looked up: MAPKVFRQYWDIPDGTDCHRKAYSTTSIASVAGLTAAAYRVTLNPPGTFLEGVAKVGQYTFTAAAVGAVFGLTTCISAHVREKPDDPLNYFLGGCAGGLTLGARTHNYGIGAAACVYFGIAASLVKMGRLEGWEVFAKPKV
UniProt P19404, whole entry: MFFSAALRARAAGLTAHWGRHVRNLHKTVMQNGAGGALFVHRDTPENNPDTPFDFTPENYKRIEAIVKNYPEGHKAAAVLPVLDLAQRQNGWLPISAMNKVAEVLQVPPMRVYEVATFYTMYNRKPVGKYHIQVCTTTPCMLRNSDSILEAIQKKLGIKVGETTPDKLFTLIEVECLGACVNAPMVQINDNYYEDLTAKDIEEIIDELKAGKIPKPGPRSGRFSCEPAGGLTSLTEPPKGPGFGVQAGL
UniProt Q9P032: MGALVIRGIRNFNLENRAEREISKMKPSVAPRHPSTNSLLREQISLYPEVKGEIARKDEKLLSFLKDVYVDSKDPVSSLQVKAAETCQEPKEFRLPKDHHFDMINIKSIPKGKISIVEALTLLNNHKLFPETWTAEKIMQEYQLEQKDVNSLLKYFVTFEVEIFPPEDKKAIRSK
UniProt Q9NQR4: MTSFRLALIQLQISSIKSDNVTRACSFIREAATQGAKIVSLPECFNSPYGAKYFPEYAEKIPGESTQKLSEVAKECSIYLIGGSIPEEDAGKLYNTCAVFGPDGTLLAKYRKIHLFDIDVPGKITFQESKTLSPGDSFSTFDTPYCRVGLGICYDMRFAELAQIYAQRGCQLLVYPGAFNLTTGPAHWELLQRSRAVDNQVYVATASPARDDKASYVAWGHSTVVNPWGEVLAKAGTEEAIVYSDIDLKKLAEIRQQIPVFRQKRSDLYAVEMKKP
UniProt Q9UBB6: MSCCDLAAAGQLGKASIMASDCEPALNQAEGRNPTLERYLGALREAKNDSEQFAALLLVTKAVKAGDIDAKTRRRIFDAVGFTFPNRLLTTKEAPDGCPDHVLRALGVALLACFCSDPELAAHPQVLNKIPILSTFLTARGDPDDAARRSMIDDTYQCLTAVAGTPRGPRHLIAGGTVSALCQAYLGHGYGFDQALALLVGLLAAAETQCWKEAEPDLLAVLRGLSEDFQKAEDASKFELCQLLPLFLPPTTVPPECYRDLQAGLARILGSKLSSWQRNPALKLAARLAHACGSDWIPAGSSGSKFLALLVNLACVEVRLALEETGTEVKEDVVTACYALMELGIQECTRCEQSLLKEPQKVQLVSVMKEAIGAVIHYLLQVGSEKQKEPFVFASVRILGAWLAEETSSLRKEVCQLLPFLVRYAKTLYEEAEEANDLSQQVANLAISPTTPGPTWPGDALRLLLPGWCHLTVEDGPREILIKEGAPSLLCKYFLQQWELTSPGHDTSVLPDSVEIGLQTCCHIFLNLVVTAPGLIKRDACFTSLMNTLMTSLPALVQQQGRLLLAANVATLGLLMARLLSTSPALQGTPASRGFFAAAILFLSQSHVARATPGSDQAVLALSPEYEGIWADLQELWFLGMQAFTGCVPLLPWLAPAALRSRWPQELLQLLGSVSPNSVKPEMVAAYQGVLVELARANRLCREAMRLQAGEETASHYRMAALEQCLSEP
UniProt Q12986: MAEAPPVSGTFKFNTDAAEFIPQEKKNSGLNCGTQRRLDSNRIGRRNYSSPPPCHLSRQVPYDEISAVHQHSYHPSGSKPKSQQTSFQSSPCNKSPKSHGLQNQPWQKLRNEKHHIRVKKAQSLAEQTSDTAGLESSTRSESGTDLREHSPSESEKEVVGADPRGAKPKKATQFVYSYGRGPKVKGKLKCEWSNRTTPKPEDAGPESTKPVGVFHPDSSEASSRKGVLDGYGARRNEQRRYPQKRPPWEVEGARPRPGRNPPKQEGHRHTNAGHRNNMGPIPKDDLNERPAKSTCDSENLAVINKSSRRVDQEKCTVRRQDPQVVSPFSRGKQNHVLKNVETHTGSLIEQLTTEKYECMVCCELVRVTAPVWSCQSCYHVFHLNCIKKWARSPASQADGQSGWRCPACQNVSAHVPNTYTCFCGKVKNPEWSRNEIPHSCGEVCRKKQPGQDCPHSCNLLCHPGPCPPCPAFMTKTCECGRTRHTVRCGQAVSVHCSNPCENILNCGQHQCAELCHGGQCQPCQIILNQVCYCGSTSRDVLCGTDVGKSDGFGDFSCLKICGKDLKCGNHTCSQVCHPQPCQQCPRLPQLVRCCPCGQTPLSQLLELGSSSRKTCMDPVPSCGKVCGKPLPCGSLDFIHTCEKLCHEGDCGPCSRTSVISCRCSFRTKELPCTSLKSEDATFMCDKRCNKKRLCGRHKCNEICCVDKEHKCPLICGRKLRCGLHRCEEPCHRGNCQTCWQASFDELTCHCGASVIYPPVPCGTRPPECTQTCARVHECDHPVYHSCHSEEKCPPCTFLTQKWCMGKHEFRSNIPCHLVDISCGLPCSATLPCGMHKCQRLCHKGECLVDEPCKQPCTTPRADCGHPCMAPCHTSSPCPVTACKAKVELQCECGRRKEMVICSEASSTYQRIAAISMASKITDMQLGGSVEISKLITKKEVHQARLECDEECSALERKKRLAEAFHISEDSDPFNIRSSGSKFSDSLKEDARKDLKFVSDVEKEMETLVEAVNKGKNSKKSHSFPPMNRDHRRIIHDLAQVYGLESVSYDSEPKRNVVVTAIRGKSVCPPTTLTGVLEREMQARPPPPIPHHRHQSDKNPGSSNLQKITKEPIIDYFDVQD
UniProt Q9NX24: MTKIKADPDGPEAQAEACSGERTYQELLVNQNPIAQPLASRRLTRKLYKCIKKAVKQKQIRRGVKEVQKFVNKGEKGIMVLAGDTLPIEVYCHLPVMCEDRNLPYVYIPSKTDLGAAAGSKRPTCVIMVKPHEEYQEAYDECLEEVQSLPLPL
UniProt O00221: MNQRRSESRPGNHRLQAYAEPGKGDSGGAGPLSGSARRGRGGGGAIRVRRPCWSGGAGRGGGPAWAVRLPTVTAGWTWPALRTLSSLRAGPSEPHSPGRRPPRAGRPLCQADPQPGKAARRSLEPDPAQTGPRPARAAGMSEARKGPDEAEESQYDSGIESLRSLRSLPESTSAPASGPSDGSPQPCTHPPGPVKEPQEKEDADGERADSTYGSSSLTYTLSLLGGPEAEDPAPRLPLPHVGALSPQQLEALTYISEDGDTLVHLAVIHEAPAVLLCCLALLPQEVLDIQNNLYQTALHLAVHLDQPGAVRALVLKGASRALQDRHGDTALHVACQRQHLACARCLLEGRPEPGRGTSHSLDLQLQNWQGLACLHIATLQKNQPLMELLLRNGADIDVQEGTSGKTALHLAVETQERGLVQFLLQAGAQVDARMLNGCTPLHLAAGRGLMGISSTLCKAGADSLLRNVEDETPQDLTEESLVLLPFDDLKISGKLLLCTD

Target	probe-labelled cysteine peptide fold change (10 µM)	probe-labelled cysteine peptide fold change (50 µM)
NEU1_Q99519_230_DGVFCLLSDDHGASWR (UniProt Q99519)	0.00991	-0.0341
NIP7_Q9Y221_36_YIGENLQLLVDRPDGTYCFR (UniProt Q9Y221)	0.178	0.26
NCOA7_Q8NI08_618_EALDSSLESTLDNSCQGAQMDNK (UniProt Q8NI08)	0.34	-0.00884
NCOA5_Q9HCD5_200_RFDAERPVDCSVIVVNK (UniProt Q9HCD5)	-0.00882	-0.032
NEMF_O60524_663_VDESCVWR (UniProt O60524)	0.233	0.569
NELFCD_Q8IXH7_397_AVETVHNLCCNENK (UniProt Q8IXH7)	0.12	-0.0115
NCKAP1L_P55160_36_TCSDPK (UniProt P55160)	0.158	0.0267
NCOA7_Q8NI08_55_CNIAVEEEYMTDEK (UniProt Q8NI08)	0.0429	-0.0643
NEK9_Q8TD19_288_AMEVDSSQYSLELIQMVHSCLDQDPEQRPTADELLDRPLLR (UniProt Q8TD19)	0.241	0.209
NDUFS1_P28331_78_MCLVEIEK (UniProt P28331)	-0.237	0.0677
NIT1_Q86X76_120_ECGLWLSLGGFHER (UniProt Q86X76)	-0.237	0.0468
NCF2_P19878_40+45_ICFNIGCMYTILK (UniProt P19878)	-0.255	-0.17
NEK4_P51957-2_463_DQDQVAGECIIEK (UniProt P51957)	-0.0844	-0.354
NDUFV1_P49821_286_LFNISGHVNHPCTVEEEMSVPLK (UniProt P49821)	0.121	-0.203
NEDD9_Q14511_46_KGDILTVIEQNTGGLEGWWLCSLHGR (UniProt Q14511)	-0.027	0.0648
NDUFS1_P28331_75_LSVAGNCR (UniProt P28331)	0.0407	0.114
NDUFS5_O43920_43_EWIECAHGIGYTR (UniProt O43920)	0.0135	-0.0188
NDUFA11_Q86Y39_18_QYWDIPDGTDCHRK (UniProt Q86Y39)	-0.0472	-0.0465
NDUFV2_P19404_135+140_YHIQVCTTTPCMLR (UniProt P19404)	0.0444	-0.234

A stretch from the list above, as a working copy:
Target	probe-labelled cysteine peptide fold change (10 µM)	probe-labelled cysteine peptide fold change (50 µM)
NCKAP1L_P55160_36_TCSDPK (UniProt P55160)	0.158	0.0267
NCOA7_Q8NI08_55_CNIAVEEEYMTDEK (UniProt Q8NI08)	0.0429	-0.0643
NEK9_Q8TD19_288_AMEVDSSQYSLELIQMVHSCLDQDPEQRPTADELLDRPLLR (UniProt Q8TD19)	0.241	0.209

Following part:

Target	probe-labelled cysteine peptide fold change (10 µM)	probe-labelled cysteine peptide fold change (50 µM)
NDOR1_Q9UHB4_486_VAQGQTGNFLFFGCR (UniProt Q9UHB4)	-0.0422	-0.0102
NDUFAF4_Q9P032_87_AAETCQEPK (UniProt Q9P032)	-0.0492	-0.243
NCKIPSD_Q9NZQ3_376_DLSMALPSGQVCHDQQR (UniProt Q9NZQ3)	0.17	0.0042
NIPBL_Q6KC79_52_IAEEVNCLLACRDDNLVSQLVHSLNQVSTDHIELK (UniProt Q6KC79)	0.000251	-0.297
NDUFS1_P28331_564_DCFIIYQGHHGDVGAPIADVILPGAAYTEK (UniProt P28331)	-0.092	0.0629
NELFB_Q8WX92_254+259_AELLMSLHDLDVGEICTVDPCHK (UniProt Q8WX92)	-0.126	-0.388
NISCH_Q9Y2I1_185_TDLGHILDFTCR (UniProt Q9Y2I1)	-0.0479	-0.0955
NIT2_Q9NQR4_146_TLSPGDSFSTFDTPYCR (UniProt Q9NQR4)	0.263	0.182
NDUFA10_O95299_67_VITVDGNICTGK (UniProt O95299)	-0.075	0.0544
NDUFV1_P49821_238+255_LKPPFPADVGVFGCPTTVANVETVAVSPTICR (UniProt P49821)	-0.0727	0.0828
NCDN_Q9UBB6_725_MAALEQCLSEP (UniProt Q9UBB6)	0.0752	0.00418
NDUFA8_P51970_66_CALDFFR (UniProt P51970)	-0.0321	0.114
NIT1_Q86X76_203_IGLAVCYDMR (UniProt Q86X76)	0.169	-0.227
NDRG2_Q9UN36_255_CPVMLVVGDQAPHEDAVVECNSK (UniProt Q9UN36)	-0.0589	0.0874
NFX1_Q12986_730_CEEPCHR (UniProt Q12986)	0.0901	0.247
NHP2_Q9NX24_98_GIMVLAGDTLPIEVYCHLPVMCEDR (UniProt Q9NX24)	0.0292	-0.216
NHP2_Q9NX24_18_IKADPDGPEAQAEACSGER (UniProt Q9NX24)	-0.0829	-0.247
NFKBIE_O00221_335_HGDTALHVACQR (UniProt O00221)	0.0384	0.0799
NDUFS1_P28331_554_VLFLLGADGGCITR (UniProt P28331)	-0.0537	0.0876
